# Results of single-concentration screens

Amino acid sequences for entries named in this document (tags omitted). Residues count along the entry.
UniProt Q8IDJ8, 1-583: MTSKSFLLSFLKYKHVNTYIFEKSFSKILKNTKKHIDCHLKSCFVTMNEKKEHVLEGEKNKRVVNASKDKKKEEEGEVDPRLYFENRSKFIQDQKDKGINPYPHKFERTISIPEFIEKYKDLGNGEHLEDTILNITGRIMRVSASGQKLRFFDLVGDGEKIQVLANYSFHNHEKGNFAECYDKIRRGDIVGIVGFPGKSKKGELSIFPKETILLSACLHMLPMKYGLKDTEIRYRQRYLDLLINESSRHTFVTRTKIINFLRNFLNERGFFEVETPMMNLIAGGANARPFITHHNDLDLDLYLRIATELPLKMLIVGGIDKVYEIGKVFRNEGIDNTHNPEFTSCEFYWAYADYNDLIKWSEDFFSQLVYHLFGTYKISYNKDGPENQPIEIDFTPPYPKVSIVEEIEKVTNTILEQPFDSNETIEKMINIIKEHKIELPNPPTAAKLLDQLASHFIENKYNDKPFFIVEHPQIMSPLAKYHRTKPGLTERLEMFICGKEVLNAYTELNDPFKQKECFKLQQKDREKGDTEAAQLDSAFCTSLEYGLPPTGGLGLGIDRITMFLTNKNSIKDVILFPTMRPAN
UniProt P9WFT3, whole entry: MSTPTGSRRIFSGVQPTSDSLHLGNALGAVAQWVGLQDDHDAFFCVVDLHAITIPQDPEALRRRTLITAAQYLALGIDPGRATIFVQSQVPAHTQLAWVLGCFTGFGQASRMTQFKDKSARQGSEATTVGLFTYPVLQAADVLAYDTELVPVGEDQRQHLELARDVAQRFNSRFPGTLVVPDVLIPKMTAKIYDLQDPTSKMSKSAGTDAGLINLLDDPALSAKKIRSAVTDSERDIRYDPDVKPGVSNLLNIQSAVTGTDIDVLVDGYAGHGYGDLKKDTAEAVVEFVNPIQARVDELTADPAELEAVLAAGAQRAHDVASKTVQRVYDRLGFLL

The filed quantity is “Percent Effect” (%).
The record does not define 0% and 100%; most values in the screen are far below 50% and negative numbers occur (in some assays of this library far below -100).
The compounds are a random part of those screened.
Two or more numbers in one place are separate tests of the same structure; such repeats can differ widely.

PfKRS1: 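Lysine-tRNA ligase, Plasmodium falciparum 3D7 (UniProt Q8IDJ8). Enzyme assay of the cytosolic lysyl-tRNA synthetase in 384-well plates, read by luminescence. Concentration: 30 µM. Direction is inferred from only a few compounds that gave an IC50; most scored high, so higher reads as stronger inhibition. About 69,000 compounds were tested under these conditions; 0.071% (about 49) showed 50% or more at least once.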
MtTrpRS: 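Enzyme assay of tryptophanyl-tRNA synthetase; the read-out is not stated. Target: Tryptophan-tRNA ligase, Mycobacterium tuberculosis (UniProt P9WFT3). Tested at 10 µM. Direction is not recorded; retested compounds ran higher, which suggests that high means inhibition. About 65,000 compounds were tested under these conditions; 0.098% (about 64) showed 50% or more at least once.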
Leishmania in macrophages: 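Cell assay of Leishmania donovani living inside macrophages; the read-out is not stated. Concentration: 30 µM. Higher reads as stronger inhibition (inferred: compounds with an IC50 in retests scored well above the rest). About 69,000 compounds were tested under these conditions; 1.5% (about 1,000) showed 50% or more at least once.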

* CN(C(=O)c1ccc(OCC(F)F)nc1)c1ccc2c(c1)CCO2 : PfKRS1: 1.956%; MtTrpRS: -9.564%; Leishmania in macrophages: 3.527%
* CCc1cccc(N2CCC(NC(=O)C3CCC3)CC2)c1 : PfKRS1: 0.5314%; MtTrpRS: -2.3%; Leishmania in macrophages: 11.68%
* O=C(O)C(F)(F)F.[H][C@]12CCN(c3ccccn3)[C@@]1([H])CCC(=O)N2CC1CCOCC1 : Leishmania in macrophages: 21.23%
* Cc1nc(CN2CCc3ncnc(-c4ccncc4)c3CC2)cs1 : PfKRS1: -6.455%; MtTrpRS: 5.514%
* CCc1cnc(N2C[C@H]3C[C@H](C(=O)NCC(C)C)[C@@H](C2)O3)nc1 : PfKRS1: 6.898%; MtTrpRS: 1.952%
* Cc1nn(C)c2nc(N3CCNC(=O)C3C(C)C)sc12 (stereo not shown) : PfKRS1: 0.6635%; MtTrpRS: -0.2981%; Leishmania in macrophages: 4.487%
* COc1ccc(NC(=O)NCc2ccnc(N(C)C)c2)cn1 : PfKRS1: -1.894%; MtTrpRS: 10.56%; Leishmania in macrophages: 11.31%
* CCCC(C)N(C)Cc1nnc(-c2ccco2)o1 (stereo not shown) : PfKRS1: 0.865%; MtTrpRS: -2.434%; Leishmania in macrophages: 6.961%
* Cc1cnn(C2CCCN(C(=O)c3ccc(-n4cccn4)nc3)C2)c1 (stereo not shown) : PfKRS1: -1.165%; MtTrpRS: 0.1947%; Leishmania in macrophages: -9.742%
* O=C(N1CCOCC(O)C1)C1(c2ccc(Cl)cc2)CCC1 (stereo not shown) : PfKRS1: -0.03463%; MtTrpRS: 3.707%; Leishmania in macrophages: -120.3%
* CN1C(=O)CC(C(=O)O)C12CCN(Cc1ccc(F)cc1Cl)CC2 (stereo not shown) : PfKRS1: 3.137%; MtTrpRS: 3.908%; Leishmania in macrophages: 24.17%
* CC(C)OCc1ncn2c1CN(CC1CC1)CCC2.O=C(O)C(F)(F)F : Leishmania in macrophages: -2.724%
* O[C@@H]1CCN(CC2CC2)[C@H]1Cc1ccccc1 : PfKRS1: 2.192%; MtTrpRS: -1.936%
* CC(C)(C)Oc1ccc(CN)c(C(F)(F)F)c1 : PfKRS1: 4.853%; MtTrpRS: -3.876%; Leishmania in macrophages: 27.86%
* COCCN1CCCC(O)(CN2CCN(c3cnccn3)CC2)C1=O (stereo not shown) : PfKRS1: 4.606%; MtTrpRS: -3.645%; Leishmania in macrophages: 5.693%
* O=C(O)c1ccc(S(=O)(=O)Nc2cccc(CC(F)(F)F)c2)c(F)c1 : PfKRS1: 7.87%; MtTrpRS: -4.376%; Leishmania in macrophages: -1.327%
* CN(C)C(=O)N1C[C@@H]2COC[C@]2(c2nnc(C3CC3)o2)C1 : PfKRS1: 2.197%; MtTrpRS: -0.241%
* CC(C)[C@@H]1CN(Cc2cnc(C3CCCCC3)nc2)C[C@H]1N(C)C : PfKRS1: -1.142%; MtTrpRS: 0.4471%; Leishmania in macrophages: -1.05%
* CN(C)C(=O)c1cc2c(s1)CCN(C(=O)CCCN1CCCCC1)C2 : PfKRS1: 2.449%; MtTrpRS: 5.719%; Leishmania in macrophages: -6.408%
* COc1ccc(CN2C[C@H]3CC[C@](O)(c4ccc(C)cn4)[C@H]3C2)c(F)c1 : PfKRS1: -1.608%; MtTrpRS: 0.4181%
* OC1(CNC2CCN(c3ccccn3)CC2)CCc2ccccc21 (stereo not shown) : PfKRS1: 2.27%; MtTrpRS: -0.2793%; Leishmania in macrophages: -4.92%
* Cc1nn(C)c2cn(C(C)C(=O)NCc3ccc(F)cc3)nc12 (stereo not shown) : PfKRS1: 0.8203%; MtTrpRS: 3.756%; Leishmania in macrophages: 25.73%
* O=C(Nc1cc(F)ccc1OCC1CCCO1)c1ccccn1 (stereo not shown) : PfKRS1: 0.5674%; MtTrpRS: 0.86%; Leishmania in macrophages: 38.54%
* COCCNC(=O)C1CN(Cc2ccsc2)Cc2ccnn2C1 (stereo not shown) : PfKRS1: 3.157%; MtTrpRS: -0.07047%; Leishmania in macrophages: 9.844% & 2.609%

The first 3 entries again:

* CN(C(=O)c1ccc(OCC(F)F)nc1)c1ccc2c(c1)CCO2 | PfKRS1: 1.956%; MtTrpRS: -9.564%; Leishmania in macrophages: 3.527%
* CCc1cccc(N2CCC(NC(=O)C3CCC3)CC2)c1 | PfKRS1: 0.5314%; MtTrpRS: -2.3%; Leishmania in macrophages: 11.68%
* O=C(O)C(F)(F)F.[H][C@]12CCN(c3ccccn3)[C@@]1([H])CCC(=O)N2CC1CCOCC1 | Leishmania in macrophages: 21.23%

Source: ChEMBL document CHEMBL3988442, “University of Dundee, Small-Polar-MMV Screening Library” (2021).